Data as given in PubChem BioAssay AID1259301 (Sanger Institute, 2017)

Purpose: 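Synthetic lethal pairings of kinase siRNAs with targeted drugs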 (secondary rescreen of primary hits using four separate siRNAs per gene)
System: LS180 human colorectal cancer cells
Knock-down reagent: single siRNA against human genes
Treatment: anchor drug BYL719 at 1 µM, cetuximab at 5 µg/ml or trametinib at 10 nM, each against a DMSO vehicle arm
Detection: 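Replicate-averaged survival as a fraction of the non-targeting pool 2 control, and per-drug synergy scores measured relative to the anchor drug on its own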
Reading the numbers: synergy score with BYL719 and synergy score with cetuximab and synergy score with trametinib: higher = stronger synergistic (synthetic lethal) killing; viability with siRNA alone (DMSO): higher = more cells survive
Rule for the call: 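Hit if synergy exceeds 0.10 with BYL719, cetuximab or trametinib, any single drug sufficing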
Meaning of the calls: active = synergy with at least one drug; inactive = no synergy with any drug
In all, the deposit lists 160 reagents; this is a part drawn at random. 67 of them (42%) were called active. 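Calls rest on synergy in any drug arm, not on siRNA-alone viability; rescreen tested four distinct siRNAs for each gene.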 Unmarked entries are inactive. The numbers tell different reagents against one gene apart. Not given: the amount of reagent, the time to read-out.

no.	gene	siRNA no.	synergy score with BYL719	synergy score with cetuximab	synergy score with trametinib	viability with siRNA alone (DMSO) (fraction of control)
1	PINK1	1	-0.265 (active)	-0.0953	0.101	0.944
2	PINK1	2	-0.0521 (active)	0.00724	0.103	0.67
3	PINK1	3	-0.0134 (active)	0.0633	0.135	0.717
4	PINK1	4	-0.011 (active)	-0.0708	0.291	0.985
5	HUNK	1	0.0487 (active)	0.198	0.0292	0.526
6	HUNK	2	0.0461 (active)	0.121	-0.00173	0.528
7	HUNK	3	0.025 (active)	0.061	0.184	0.541
8	HUNK	4	0.121 (active)	0.13	0.263	0.77
9	CSNK2A2	1	0.102 (active)	-0.188	0.252	0.933
10	CSNK2A2	2	0.144 (active)	0.0944	0.0958	0.75
11	CSNK2A2	3	-0.172	-0.0071	0.0753	0.732
12	CSNK2A2	4	-0.0422	-0.023	0.000601	0.211
13	CHD4	1	0.0773 (active)	-0.047	0.15	0.605
14	CHD4	2	-0.0774 (active)	0.12	0.103	0.581
15	CHD4	3	0.0266 (active)	0.117	0.113	0.672
16	CHD4	4	0.0148 (active)	0.197	0.125	0.763

Entries listed so far whose gene name begins with P or p (4):
gene	siRNA no.	synergy score with BYL719	synergy score with cetuximab	synergy score with trametinib	viability with siRNA alone (DMSO) (fraction of control)
PINK1	1	-0.265 (active)	-0.0953	0.101	0.944
PINK1	2	-0.0521 (active)	0.00724	0.103	0.67
PINK1	3	-0.0134 (active)	0.0633	0.135	0.717
PINK1	4	-0.011 (active)	-0.0708	0.291	0.985

Additional results:
no.	gene	siRNA no.	synergy score with BYL719	synergy score with cetuximab	synergy score with trametinib	viability with siRNA alone (DMSO) (fraction of control)
17	PIM1	1	0.0189	-0.0525	0.0304	0.676
18	PIM1	2	0.132 (active)	-0.0565	0.181	0.778
19	PIM1	3	-0.104	-0.087	-0.0419	0.686
20	PIM1	4	-0.12	-0.309	0.0158	0.524
21	IRAK1	1	0.0229 (active)	-0.113	0.242	0.806
22	IRAK1	2	0.0513	-0.0374	-0.0912	0.859
23	IRAK1	3	-0.0502	-0.14	-0.0104	0.591
24	IRAK1	4	0.394 (active)	-0.0163	-0.293	0.851
